Here are results for 39 compounds from PubChem BioAssay AID2685 (National Center for Advancing Translational Sciences (NCATS), 2010).

The nature of this assay: qHTS Assay for Lipid Storage Modulators in Drosophila S3 Cells.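 For cell number change: cells counted by Cell Tracker Red CMTPX staining in the red channel.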 The following applies: BODIPY lipid droplet fluorescence, 18-24 h; for cell number change: measured here: cell count max response, cells fed with added oleic acid. Put shortly: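 Laser-scanning cytometry quantifies lipid droplet accumulation (500–530 nm total intensity; droplet/cell object ratio) in oleic acid-fed (400 uM added) Drosophila S3 cells treated with a concentration series. 20 uM Triacsin C defined 100% inhibition.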
Background: qHTS replaces the single test concentration by a dilution series.

The mark [1] stands for this setting: measured here: cell number channel AC50, cells fed with added oleic acid.
[2] abbreviates: measured here: lipid fluorescence (Fed channel) AC50, cells fed with added oleic acid.

The list shows a part of the results. Further columns of the screen follow, without active or inactive calls. Compounds called inactive in the main read-out are mostly missing here. Words in brackets tell the shape of the fitted curve; partial curves, single points and poor fits give uncertain potencies.

As a reminder, the AC50 is the concentration at which the activity in the assay is half-maximal. As for `CC(C)[C@H](Nc1ccc(S(=O)(=O)N2CCOCC2)cc1[N+](=O)[O-])C(=O)OCC(N)=O`, the cell number change was -30.9%. In addition, the AC50 under setting [1] was 4.11 µM [falling, full curve]. For the same compound, the AC50 under setting [2] was 1.46 µM [falling, full curve]. In the case of `COC(=O)c1cc(C)nc(Sc2ccccc2N)n1`, the cell number change was -16.5%. Besides, the AC50 under setting [2] is 32.6 µM [falling, single point]. For `COc1ccccc1NC(=S)N1CCN(c2ccc(F)cc2)CC1`, the cell number change was found to be 16.8%. Under setting [2], the AC50 was 0.58 µM [rising, single point]. `Cc1c(NC(=O)COC(=O)c2cc3c4ccccc4n(C)c3s2)c(=O)n(-c2ccccc2)n1C`: the cell number change is 13.8%. Moreover, the AC50 under setting [2] was 29.1 µM [rising, partial curve, poor fit].

In the case of `CN(C)c1nnnn1-c1ccc(Cl)cc1`, the cell number change was -5.29%. Moreover, the AC50 under setting [2] is 6.51 µM [falling, full curve].

`O=[N+]([O-])c1cccc(CN(CCO)Cc2ccccc2)c1`: the AC50 under setting [2] is 16.4 µM [falling, partial curve]. As for `O=C(Nc1nnc(S(=O)(=O)N2CCCCC2)s1)c1cccc(Br)c1`, the cell number change came out at 24.2%. For the same compound, under setting [2], the concentration at half-maximal activity (AC50) was 0.58 µM [falling, single point]. In the case of `COCC(C)n1c(C)cc(C(=O)CN2c3cccc4cccc(c34)S2(=O)=O)c1C` (stereo not given), the cell number change is 9.52%. Further, the AC50 under setting [2] was 29.1 µM [falling, single point]. Consider `Oc1oc(-c2cccc3ccccc23)nc1/C=N/c1nccs1`, for which the cell number change was -36.9%. The AC50 under setting [1] was 20.6 µM [falling, single point]. Besides, the AC50 under setting [2] was 14.6 µM [falling, single point]. For `Cc1ccc(C(=O)C2=C(O)C(=O)N(CCCN(C)C)C23C(=O)N(C)c2ccccc23)o1` (stereo not given), the cell number change was -6.66%. Regarding `COc1ccc(OC(=O)c2ccc3nsnc3c2)cc1`, the cell number change is -30.6%. The AC50 under setting [1] is 4.61 µM [falling, partial curve, poor fit]. Further, the AC50 under setting [2] was 1.84 µM [rising, full curve, poor fit].

As for `CCCCN(CC(=O)NCc1ccc(F)cc1)C(=O)c1ccco1`, the cell number change is -16.5%.

Turning to `COc1ccc(Nc2nc(N)c3ccccc3n2)c(OC)c1`, the cell number change is -20.7%. Consider `Cc1cccc2cc3c(N)c(C(=O)N4CCc5ccccc54)sc3nc12`, for which the cell number change was found to be 45.9%. For the same compound, the AC50 under setting [1] was 1.64 µM [rising, partial curve]. The AC50 under setting [2] was 2.06 µM [falling, full curve].

With `O=C(O)c1ccc(Cl)c(S(=O)(=O)Nc2ccc(OCc3ccccc3)cc2)c1`, the cell number change is -39.5%. Further, the AC50 under setting [1] is 14.6 µM [falling, partial curve, poor fit]. Turning to `O=C(Nc1ccc2nc(-c3cccnc3)[nH]c2c1)C12CC3CC(CC(C3)C1)C2`, the cell number change was -21.9%. For the same compound, under setting [2], the AC50 was 11.6 µM [falling, partial curve]. Turning to `NCCCC[C@H]1CNC(=O)C(=O)N1CCCCC1CCCCC1`, the cell number change is -27.8%. Further, the AC50 under setting [2] is 29.1 µM [falling, single point]. For `COc1ccc(C(=O)NCC(=O)N/N=C/c2c(C)[nH]c3ccccc23)cc1`, the cell number change was -7.31%. Besides, the AC50 under setting [2] was 6.51 µM [falling, partial curve, poor fit]. On to `COc1ccc(OCc2cc(C(=O)N3CCOCC3)no2)c(Cl)c1`, for which the cell number change is -20%.

Turning to `COc1c(C)cc(C(=O)C2CCCN(C(=O)CCc3scnc3C)C2)cc1C` (stereo not given), the cell number change is -65.1%. Under setting [1], the AC50 is 18.4 µM [falling, partial curve]. In addition, under setting [2], the AC50 was 10.3 µM [falling, partial curve]. For the compound `CC(C)(C)c1ccc(C(=O)Nc2ccc(NC(=O)c3ccco3)cc2)cc1`, the cell number change is -25.3%. Under setting [2], the AC50 was 18.4 µM [falling, partial curve].

With `N#CCC(=O)Nc1ncn(Cc2ccccc2Cl)n1`, the cell number change is -73.7%. Moreover, the AC50 under setting [1] was 23.1 µM [falling, partial curve]. For the compound `CCc1ccc(OC(C)C(=O)N(Cc2ccccc2)C2CCS(=O)(=O)C2)cc1` (stereo not given), the cell number change is -39.5%. In addition, the AC50 under setting [1] was 2.31 µM [falling, partial curve]. `O=c1cc(-c2ccc([N+](=O)[O-])cc2)nc2cc(-c3ccc(Cl)cc3)[nH]n12`: the cell number change is -9.29%. For the same compound, the AC50 under setting [2] was 2.06 µM [falling, partial curve]. As to `CCOc1ccc(CN2CCC(C(=O)Nc3cccc(-c4ccn[nH]4)c3)CC2)cc1Cl`, the cell number change is -19.4%. The AC50 under setting [2] was 2.91 µM [rising, partial curve]. Regarding `Cc1noc(C)c1CSc1nnc(-c2cc(Cl)ccc2Cl)n1N`, the cell number change amounted to 17.6%. Under setting [2], the AC50 was 5.8 µM [falling, single point]. `O=C(O)c1ccccc1CSc1nc2ccccc2s1`: the cell number change was -1.59%. The half-maximal activity concentration (AC50) under setting [2] is 29.1 µM [rising, single point]. As for `COc1ccc(NC(=O)C2CC2)cc1-n1cnnn1`, the cell number change came to 0.455%. For the compound `Clc1ccc(NC2=NCCC2)cc1Cl`, the cell number change is -30.1%. Besides, the concentration at half-maximal activity (AC50) under setting [1] is 0.13 µM [falling, full curve]. Moreover, the AC50 under setting [2] was 0.116 µM [falling, full curve, poor fit]. As for `CCN(CC)c1ccc(NC(=O)c2ccc(Cl)nc2)cc1`, the AC50 under setting [2] was 3.26 µM [falling, partial curve].

Turning to `CCCOc1ccc(CC(=O)N/N=C\c2ccc(F)cc2)cc1`, the AC50 under setting [2] was 29.1 µM [rising, single point]. As to `CCCCC(OC(=O)c1ccco1)C(=O)NCc1ccc(C)cc1` (stereo not given), the cell number change was -8.97%. The AC50 under setting [2] was 7.31 µM [falling, single point].

`COc1ccccc1Nc1nc(N)nc(-c2oc3ccccc3c2C)n1`: the AC50 is 1.16 µM [rising, partial curve] under setting [1] and 2.06 µM [rising, partial curve] under setting [2]. Consider `Fc1ccccc1-c1n[nH]c(=S)n1C1CC1`, for which the cell number change is 15.4%. Also, under setting [2], the AC50 was 2.06 µM [falling, single point].

In the case of `CSc1nc(NC(C)(C)C)nc(Oc2ccc(=O)[nH]n2)n1`, under setting [1], the AC50 is 2.59 µM [falling, partial curve]. As to `O=C(Nc1ccc(N2CCOCC2)cc1)c1cc(F)c(F)cc1Cl`, the cell number change turned out to be 16.7%. For the same compound, the AC50 under setting [1] is 4.11 µM [falling, partial curve]. In the case of `O=[N+]([O-])c1c(Nc2cccc(O)c2)cc(Cl)c2nonc12`, the cell number change was -32.3%. Also, under setting [1], the AC50 is 4.61 µM [falling, partial curve]. Also, the AC50 under setting [2] is 11.6 µM [falling, single point]. For `O=C(CCCC(=O)OCC(=O)c1ccc(F)cc1)Nc1cc(C(F)(F)F)ccc1Cl`, the cell number change is 25.1%. For the same compound, the AC50 under setting [2] was 23.1 µM [falling, single point]. Turning to `CC(=O)c1ccc(Nc2cc(C)nc3ncnn23)cc1`, the cell number change stood at 9.97%.
